PMC10882499
These are yes or no findings as the source states them, for the method shown. Binding seen in cells or lysates may run through a third protein. A yes stands for co-enrichment or nearness to the bait. Other partners may have been found.

Chains of the proteins cited; added tags and fusions are not shown.
UniProt P62136: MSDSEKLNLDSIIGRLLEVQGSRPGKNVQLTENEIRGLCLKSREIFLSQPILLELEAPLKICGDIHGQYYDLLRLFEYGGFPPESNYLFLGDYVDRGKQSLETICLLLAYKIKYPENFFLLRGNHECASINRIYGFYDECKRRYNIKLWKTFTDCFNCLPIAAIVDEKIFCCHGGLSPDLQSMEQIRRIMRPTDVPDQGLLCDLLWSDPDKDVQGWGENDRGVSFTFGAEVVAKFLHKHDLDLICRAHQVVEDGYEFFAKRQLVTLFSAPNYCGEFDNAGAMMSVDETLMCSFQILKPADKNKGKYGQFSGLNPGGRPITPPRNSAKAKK
UniProt O94822: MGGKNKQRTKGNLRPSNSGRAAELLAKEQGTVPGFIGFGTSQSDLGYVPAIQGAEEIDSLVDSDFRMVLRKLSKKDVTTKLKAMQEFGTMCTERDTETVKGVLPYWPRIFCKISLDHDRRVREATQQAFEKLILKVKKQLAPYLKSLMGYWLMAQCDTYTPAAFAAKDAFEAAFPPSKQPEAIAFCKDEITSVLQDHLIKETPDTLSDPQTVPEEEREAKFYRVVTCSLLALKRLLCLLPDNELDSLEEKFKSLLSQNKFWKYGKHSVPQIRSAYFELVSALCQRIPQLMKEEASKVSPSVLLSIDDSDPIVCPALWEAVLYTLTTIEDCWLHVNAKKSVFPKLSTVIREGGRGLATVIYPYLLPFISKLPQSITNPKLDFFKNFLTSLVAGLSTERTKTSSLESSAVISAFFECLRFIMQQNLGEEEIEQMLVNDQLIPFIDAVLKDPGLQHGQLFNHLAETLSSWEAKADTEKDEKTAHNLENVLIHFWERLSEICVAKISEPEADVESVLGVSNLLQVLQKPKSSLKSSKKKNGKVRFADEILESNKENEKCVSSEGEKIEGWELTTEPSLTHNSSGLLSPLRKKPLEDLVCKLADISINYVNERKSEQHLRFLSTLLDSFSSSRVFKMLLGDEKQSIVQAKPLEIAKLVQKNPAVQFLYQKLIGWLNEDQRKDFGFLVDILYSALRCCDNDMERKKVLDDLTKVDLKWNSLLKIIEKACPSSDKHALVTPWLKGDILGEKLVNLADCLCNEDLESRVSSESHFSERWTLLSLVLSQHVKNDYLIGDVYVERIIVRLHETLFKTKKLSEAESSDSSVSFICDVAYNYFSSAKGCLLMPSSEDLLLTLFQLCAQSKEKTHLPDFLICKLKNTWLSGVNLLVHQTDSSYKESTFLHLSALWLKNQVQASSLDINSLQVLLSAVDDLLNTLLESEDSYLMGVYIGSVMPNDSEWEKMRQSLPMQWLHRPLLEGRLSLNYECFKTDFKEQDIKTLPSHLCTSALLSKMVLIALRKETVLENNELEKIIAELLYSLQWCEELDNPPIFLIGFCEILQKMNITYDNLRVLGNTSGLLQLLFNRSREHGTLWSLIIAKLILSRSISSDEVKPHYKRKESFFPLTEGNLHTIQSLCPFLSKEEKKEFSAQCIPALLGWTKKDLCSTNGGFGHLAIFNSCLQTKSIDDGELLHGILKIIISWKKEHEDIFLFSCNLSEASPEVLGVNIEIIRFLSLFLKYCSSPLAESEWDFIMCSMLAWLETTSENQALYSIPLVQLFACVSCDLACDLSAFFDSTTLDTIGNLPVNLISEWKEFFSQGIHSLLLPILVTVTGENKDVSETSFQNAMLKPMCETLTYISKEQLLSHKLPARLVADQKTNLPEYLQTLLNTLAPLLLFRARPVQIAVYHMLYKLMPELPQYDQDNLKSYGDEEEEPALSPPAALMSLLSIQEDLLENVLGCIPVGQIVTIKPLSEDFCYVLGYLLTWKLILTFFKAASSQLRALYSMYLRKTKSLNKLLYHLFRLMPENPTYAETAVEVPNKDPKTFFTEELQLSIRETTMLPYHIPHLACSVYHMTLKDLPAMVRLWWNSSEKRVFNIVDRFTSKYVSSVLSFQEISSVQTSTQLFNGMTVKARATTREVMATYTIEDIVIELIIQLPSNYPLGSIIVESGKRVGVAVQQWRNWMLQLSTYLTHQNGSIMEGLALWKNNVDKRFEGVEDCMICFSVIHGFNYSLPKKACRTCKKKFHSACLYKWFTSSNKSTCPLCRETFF
UniProt P62140: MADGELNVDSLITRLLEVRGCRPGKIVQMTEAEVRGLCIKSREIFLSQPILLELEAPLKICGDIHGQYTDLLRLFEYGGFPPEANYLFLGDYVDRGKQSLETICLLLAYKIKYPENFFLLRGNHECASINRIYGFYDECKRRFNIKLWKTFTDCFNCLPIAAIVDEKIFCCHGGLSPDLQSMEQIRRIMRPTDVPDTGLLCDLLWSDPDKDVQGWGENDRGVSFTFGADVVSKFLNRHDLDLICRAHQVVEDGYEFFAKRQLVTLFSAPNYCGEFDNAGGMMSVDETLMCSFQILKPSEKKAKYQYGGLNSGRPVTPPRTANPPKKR
UniProt P36873: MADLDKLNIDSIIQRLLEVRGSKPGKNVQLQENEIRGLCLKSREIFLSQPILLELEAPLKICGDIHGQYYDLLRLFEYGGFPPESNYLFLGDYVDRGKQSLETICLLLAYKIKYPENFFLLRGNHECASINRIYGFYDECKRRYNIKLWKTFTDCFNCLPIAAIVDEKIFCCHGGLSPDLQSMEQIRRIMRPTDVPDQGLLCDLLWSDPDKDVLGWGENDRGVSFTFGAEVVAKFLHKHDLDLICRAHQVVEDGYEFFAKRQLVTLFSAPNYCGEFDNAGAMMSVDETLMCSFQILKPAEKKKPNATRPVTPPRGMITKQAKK
UniProt Q9P2K8: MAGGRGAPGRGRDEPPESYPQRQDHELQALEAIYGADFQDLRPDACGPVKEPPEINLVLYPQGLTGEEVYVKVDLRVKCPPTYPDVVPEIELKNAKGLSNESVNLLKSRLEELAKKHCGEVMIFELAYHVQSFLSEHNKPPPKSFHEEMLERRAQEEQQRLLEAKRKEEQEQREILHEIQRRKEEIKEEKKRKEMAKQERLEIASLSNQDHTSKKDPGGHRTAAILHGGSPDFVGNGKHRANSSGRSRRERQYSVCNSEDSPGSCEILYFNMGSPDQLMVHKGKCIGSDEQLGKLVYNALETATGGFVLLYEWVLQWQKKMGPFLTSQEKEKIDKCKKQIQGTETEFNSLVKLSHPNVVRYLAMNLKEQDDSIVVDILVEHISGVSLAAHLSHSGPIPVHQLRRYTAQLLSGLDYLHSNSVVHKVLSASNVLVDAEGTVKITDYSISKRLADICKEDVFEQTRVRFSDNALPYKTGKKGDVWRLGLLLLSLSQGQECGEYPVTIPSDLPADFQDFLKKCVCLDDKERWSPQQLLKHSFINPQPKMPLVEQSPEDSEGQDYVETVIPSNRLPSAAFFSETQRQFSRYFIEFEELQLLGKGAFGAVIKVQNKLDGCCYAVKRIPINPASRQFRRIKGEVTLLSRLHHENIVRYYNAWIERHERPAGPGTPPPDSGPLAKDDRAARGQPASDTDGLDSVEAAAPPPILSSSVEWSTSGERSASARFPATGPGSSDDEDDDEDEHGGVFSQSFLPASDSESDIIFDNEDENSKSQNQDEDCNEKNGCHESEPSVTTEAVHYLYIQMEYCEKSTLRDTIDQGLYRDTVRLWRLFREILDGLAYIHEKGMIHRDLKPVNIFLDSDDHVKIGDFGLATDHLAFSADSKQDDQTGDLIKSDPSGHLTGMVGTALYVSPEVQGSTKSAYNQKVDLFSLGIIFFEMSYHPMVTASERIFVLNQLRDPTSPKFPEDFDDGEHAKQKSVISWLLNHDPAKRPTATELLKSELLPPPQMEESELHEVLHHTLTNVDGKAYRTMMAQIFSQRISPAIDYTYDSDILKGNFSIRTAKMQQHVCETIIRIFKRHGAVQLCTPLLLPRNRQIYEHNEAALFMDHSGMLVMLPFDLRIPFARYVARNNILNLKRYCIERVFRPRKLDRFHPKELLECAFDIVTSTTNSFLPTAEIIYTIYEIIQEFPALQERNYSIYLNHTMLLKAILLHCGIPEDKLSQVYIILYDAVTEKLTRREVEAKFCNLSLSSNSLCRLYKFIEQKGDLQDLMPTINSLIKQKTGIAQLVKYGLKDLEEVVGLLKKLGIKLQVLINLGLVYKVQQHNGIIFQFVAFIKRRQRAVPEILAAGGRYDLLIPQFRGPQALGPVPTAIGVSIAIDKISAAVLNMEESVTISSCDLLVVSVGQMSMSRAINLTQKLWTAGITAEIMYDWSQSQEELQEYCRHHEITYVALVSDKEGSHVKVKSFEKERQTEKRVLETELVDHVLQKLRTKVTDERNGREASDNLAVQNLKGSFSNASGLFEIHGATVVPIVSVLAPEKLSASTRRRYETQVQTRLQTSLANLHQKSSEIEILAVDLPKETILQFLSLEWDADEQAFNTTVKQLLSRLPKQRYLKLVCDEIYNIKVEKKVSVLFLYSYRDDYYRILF
UniProt P35573: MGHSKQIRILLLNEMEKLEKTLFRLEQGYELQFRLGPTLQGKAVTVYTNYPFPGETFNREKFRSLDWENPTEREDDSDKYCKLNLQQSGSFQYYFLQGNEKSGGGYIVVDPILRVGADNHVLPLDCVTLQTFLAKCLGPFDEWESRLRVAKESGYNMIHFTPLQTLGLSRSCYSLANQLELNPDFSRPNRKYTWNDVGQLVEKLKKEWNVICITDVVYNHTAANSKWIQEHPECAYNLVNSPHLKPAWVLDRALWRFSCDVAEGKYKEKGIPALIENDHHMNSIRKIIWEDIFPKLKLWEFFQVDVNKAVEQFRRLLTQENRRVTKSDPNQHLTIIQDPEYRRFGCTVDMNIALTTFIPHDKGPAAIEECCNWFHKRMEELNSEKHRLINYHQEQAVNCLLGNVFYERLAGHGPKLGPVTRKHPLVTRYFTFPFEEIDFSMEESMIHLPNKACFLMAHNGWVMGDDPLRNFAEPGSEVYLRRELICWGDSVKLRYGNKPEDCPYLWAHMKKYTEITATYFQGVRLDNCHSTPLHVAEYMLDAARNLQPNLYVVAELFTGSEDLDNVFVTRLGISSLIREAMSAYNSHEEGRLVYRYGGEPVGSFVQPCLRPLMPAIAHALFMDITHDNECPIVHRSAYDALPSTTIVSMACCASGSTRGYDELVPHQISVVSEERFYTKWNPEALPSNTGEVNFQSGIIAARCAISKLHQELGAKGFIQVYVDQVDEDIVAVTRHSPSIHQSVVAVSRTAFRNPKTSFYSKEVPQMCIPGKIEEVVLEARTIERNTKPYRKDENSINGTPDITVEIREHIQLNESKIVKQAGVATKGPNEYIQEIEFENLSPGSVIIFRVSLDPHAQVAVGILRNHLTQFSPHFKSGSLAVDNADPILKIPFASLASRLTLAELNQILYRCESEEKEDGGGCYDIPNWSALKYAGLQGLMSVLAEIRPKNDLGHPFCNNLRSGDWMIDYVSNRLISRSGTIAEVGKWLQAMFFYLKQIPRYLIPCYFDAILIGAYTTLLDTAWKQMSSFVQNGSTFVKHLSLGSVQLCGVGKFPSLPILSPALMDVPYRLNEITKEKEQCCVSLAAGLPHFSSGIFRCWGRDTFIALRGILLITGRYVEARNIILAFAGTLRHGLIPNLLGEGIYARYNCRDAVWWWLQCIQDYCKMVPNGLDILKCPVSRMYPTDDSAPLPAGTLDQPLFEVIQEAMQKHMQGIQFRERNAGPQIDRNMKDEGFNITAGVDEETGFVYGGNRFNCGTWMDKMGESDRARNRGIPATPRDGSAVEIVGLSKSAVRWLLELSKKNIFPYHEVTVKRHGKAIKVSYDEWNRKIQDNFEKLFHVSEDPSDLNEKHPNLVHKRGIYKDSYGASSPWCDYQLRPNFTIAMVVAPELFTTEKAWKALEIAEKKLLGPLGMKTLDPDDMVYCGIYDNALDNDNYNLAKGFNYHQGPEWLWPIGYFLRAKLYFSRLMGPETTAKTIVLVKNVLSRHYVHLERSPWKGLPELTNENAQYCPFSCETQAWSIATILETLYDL

T1: mVenus-PDP1
T1 sequence: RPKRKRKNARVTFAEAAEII

B1: nucleoplasmin-3 (protein, UniProt O75607 1-178)
chain: MAAGTAAALAFLSQESRTRAGGVGGLRVPAPVTMDSFFFGCELSGHTRSFTFKVEEEDDAEHVLALTMLCLTEGAKDECNVVEVVARNHDHQEIAVPVANLKLSCQPMLSLDDFQLQPPVTFRLKSGSGPVRITGRHQIVTMSNDVSEEESEEEEEDSDEEEVELCPILPAKKQGGRP

Assays:
[1] = target: mVenus-PP1α (UniProt P62136); experiment: affinity purification with mass spectrometry; HeLa Kyoto FlpInTrex mVenus-PP1α or mVenus-Ctrl cells induced with doxycycline 24 h, medium with 50 μM PDP-Nal, 50 μM PDPm-Nal or DMSO for 5 min at 37 °C, lysed; Co-IP with GFP-Trap beads, label-free quantitative mass spectrometry
[2] = target: T1, mVenus-PDP1; experiment: affinity purification with mass spectrometry; HeLa Kyoto cells transiently transfected with mVenus-PDP1 or mVenus-PDP1m, lysed after 24 h; IP of mVenus with anti-GFP beads, tryptic digestion, LC-MS/MS with label-free quantification; compared with mVenus-control pulldowns

Row | Molecule | binding [1] | binding [2]
1 | E3 ubiquitin-protein ligase listerin (from UniProt O94822 1-1766) (enzyme) | binds | –
2 | PP1α (from UniProt P62136 1-330) (enzyme) | – | binds
3 | PP1β (from UniProt P62140 1-327) (enzyme) | – | binds
4 | PP1γ (from UniProt P36873 1-323) (enzyme) | – | binds
5 | eIF-2-alpha kinase GCN2 (from UniProt Q9P2K8 1-1649) (enzyme) | binds | –
6 | glycogen debranching enzyme (from UniProt P35573 1-1532) | binds | –
7 | B1 | binds | –
